# Results from PubChem BioAssay AID504834 (National Center for Advancing Translational Sciences (NCATS), 2011).
# The campaign covered roughly 320,000 compounds. About 22,000 (6.9%) were called active. Inconclusive means that the source gave no clear call. Such entries were picked first, then a sample of the others. Calls come from the whole dose curve; as a rule, active = well fitted inhibition curve with a large enough effect; inconclusive = small, poorly fitted or top-dose-only effect, or another doubt; inactive = no such curve, though single readings can be large or run the other way. Potencies beside an inconclusive call are fits to weak or partial responses and may not hold up.
# Assay: Primary qHTS for delayed death inhibitors of the malarial parasite plastid, 96 hour incubation
# Settings: P. falciparum luciferase reporter growth; series mostly up to 28.7 µM; activity change, negative = inhibition: at the top concentration
# Outline: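 Parasite growth measured via integrated firefly luciferase reporter in P. falciparum. Infected erythrocytes at 2% hematocrit, 0.05% parasitemia final were treated 96 hours at 37 C under 5% CO2, and luminescence was read.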
# % is set by controls: 0 for no effect and ±100 for the full control effect; potency is the fitted concentration of half-maximal effect.
Compound,Potency,"activity change, negative = inhibition"
CN1CCN(C(=O)c2ccc(CS(=O)(=O)c3c(Cl)cccc3Cl)o2)CC1,"inconclusive: 18.5 µM [inhibitor, single point]",
Cc1nnc(SCC2=C(C(=O)O)N3C(=O)C(NC(=O)COc4ccc(F)cc4)C3SC2)s1 (configuration not stated),"inconclusive: 18.5 µM [inhibitor, single point]",
Cc1ccc(CNC(=O)CCCCCNc2nc(=S)[nH]c3ccccc23)cc1,"inconclusive: 13.1 µM [inhibitor, partial curve, poor fit]",
CC1(c2nnc(-c3ccc(F)cc3)o2)CC(c2ccccc2)=NO1 (configuration not stated),,inactive: 37.7%
O=C(NC1CCS(=O)(=O)C1)c1cn(-c2ccccc2)nc1-c1ccccc1 (configuration not stated),"inconclusive: 18.5 µM [inhibitor, single point]",
CCCCCOc1ccc(CSC(=N)N)cc1[N+](=O)[O-],active: 0.465 µM,
Nc1nc(SCC(=O)O)[nH]c(=O)c1NC(=O)c1ccco1,,inactive: 35.8%
COCCCN=Cc1c(C)[nH]n(-c2ccc(Br)c(C)c2)c1=O,,inactive: 353%
C[C@H](C(=O)CC(=O)OC(C)(C)C)[C@H](O)c1ccccc1,,inactive: 89.3%
Cc1ccc(-n2nc(C)cc2NC(=O)CC#N)cc1,"inconclusive: 5.22 µM [inhibitor, partial curve]",
CC(C)(C)[C@]1(O)CCN2CC3c4ccccc4CCc4cccc(c43)[C@@H]2C1 (some centres not stated),active: 12 µM,
Cn1c(SCc2nc(-c3ccc(Br)cc3)no2)nnc1-c1ccco1,"inconclusive: 18.5 µM [inhibitor, single point]",
CC(C)c1onc(C(=O)Nc2sc3c(c2C#N)CCC3)c1[N+](=O)[O-],"inconclusive: 11.7 µM [inhibitor, single point]",
Cc1c(C)c2c(OCC(=O)NCCCO)cc3c(c2oc1=O)CCC(C)(C)O3,"inconclusive: 2.94 µM [inhibitor, partial curve, poor fit]",
COC(=NC1CCCC1)C(O)c1c[nH]c2ccccc12 (configuration not stated),"inconclusive: 10.4 µM [inhibitor, single point]",
CCOC(=O)C1(Cc2cccc(OC)c2)CCCN(Cc2cnn(C)c2)C1 (configuration not stated),"inconclusive: 10.4 µM [inhibitor, single point]",
CCC1(CC)Cc2ccccc2-c2nc(NN)[nH]c(=O)c21,"inconclusive: 11.7 µM [inhibitor, partial curve, poor fit]",
Cc1cc(C)c(C2C3=C(Nc4c2c(C)nn4-c2ccccn2)c2ccccc2C3=O)c(C)c1 (configuration not stated),active: 6.57 µM,
CCc1ccc(NC2=NCCCS2)cc1,,inactive: 10.9%
O=C(CO/N=C/c1ccc(OC(F)F)cc1)N1CCc2ccccc21,,inactive: 11.3%
CCCN1C(=O)c2cc(C(=O)Nc3ccccc3C)ccc2C1Nc1ccccc1C (configuration not stated),"inconclusive: 10.4 µM [inhibitor, partial curve]",
COc1ccc(C(=O)Nc2ccc(Cl)cc2C(=O)N2CCOCC2)cc1,"inconclusive: 18.5 µM [inhibitor, single point]",
O=C(/C=C/c1ccccc1)N1CCN(c2c(Cl)cccc2[N+](=O)[O-])CC1,"inconclusive: 5.22 µM [inhibitor, partial curve, poor fit]",
Cc1ccc(Nc2nnc(-c3ccncc3)s2)c(Br)c1,"inconclusive: 18.5 µM [inhibitor, single point]",

# Looked up one by one from the list above, 2 records:
Compound,Potency,"activity change, negative = inhibition"
CC(C)(C)[C@]1(O)CCN2CC3c4ccccc4CCc4cccc(c43)[C@@H]2C1 (some centres not stated),active: 12 µM,
Cc1nnc(SCC2=C(C(=O)O)N3C(=O)C(NC(=O)COc4ccc(F)cc4)C3SC2)s1 (configuration not stated),"inconclusive: 18.5 µM [inhibitor, single point]",

# (more compounds)

Compound,Potency,"activity change, negative = inhibition"
Cc1ccc([N+](=O)[O-])c(OCC(=O)OCC(=O)c2ccccc2)c1,active: 0.928 µM,
C/C(N)=C(/C#N)C(=O)CSc1nnc(Nc2ccccc2C)s1,active: 7.38 µM,
CCCn1c(SCC(=O)Nc2cc(Cl)ccc2OC)nc(O)cc1=O,,inactive: 10.8%
O=C(c1nc2n(n1)C(c1ccc(Cl)cc1)C=C(c1ccccc1)N2)N1CCOCC1 (configuration not stated),,inactive: 4.2%
O=C(Nc1csc([N+](=O)[O-])c1)Nc1ccccc1Cl,"inconclusive: 11.7 µM [inhibitor, single point]",
COc1ccc(CCNC(=O)c2cc3ccccn3n2)c(OC)c1OC,,inactive: -47.5%
Cc1cc(C)n(CC(O)CN(c2ccccc2)S(=O)(=O)c2ccccc2)n1 (configuration not stated),"inconclusive: 13.1 µM [inhibitor, partial curve, poor fit]",
CO/N=C(\Cn1ncc(NC2CCCCC2)c(Br)c1=O)c1ccc(Cl)cc1,"inconclusive: 9.28 µM [inhibitor, single point]",
COc1ccc(C2CC(c3ccccc3)=NN2C(=O)COC(=O)C2(C)CC2(Cl)Cl)cc1 (configuration not stated),active: 9.28 µM,
COc1cccc(/C=N/NC(N)=S)c1OCc1cccc(Cl)c1,active: 3.7 µM,
CC(=O)N1N=C(c2ccc(C)cc2)OC1c1ccc(C)cc1 (configuration not stated),,inactive: 69%
N#Cc1ccccc1COC(=O)c1cccnc1N,"inconclusive: 5.22 µM [inhibitor, partial curve]",
Cc1ccc(-c2noc(CCCC(=O)Nc3cccnc3)n2)cc1,"inconclusive: 11.7 µM [inhibitor, partial curve, poor fit]",
CCCC(C(=O)Nc1ccc(S(=O)(=O)Nc2ncccn2)cc1)c1ccccc1 (configuration not stated),,inactive: -18%
Cc1c(NC(=O)CCC(=O)N2CCOCC2)c(=O)n(-c2ccccc2)n1C,,inactive: -0.823%
CCc1ccccc1NC(=O)C1CCN(S(=O)(=O)c2ccc3c(c2)N(C(C)=O)CCO3)CC1,"inconclusive: 18.5 µM [inhibitor, single point]",
COc1ccc(NC(=O)O/N=C/c2ccc(N(C)C)cc2)cc1,,inactive: 10.5%
Cc1ccc(OCC(=O)Nc2ccc3c(c2)nc(CCN2CCCCC2)n3C)cc1,"inconclusive: 18.5 µM [inhibitor, single point]",
Cc1nnc(NC(=O)C2CCN(S(=O)(=O)c3ccc(F)c(Cl)c3)CC2)o1,active: 14.7 µM,
Cc1csc(NC(=O)CSc2nnc(-c3cc(C)on3)o2)n1,,inactive: 17.9%
Cc1csc(SCCn2c(N3CCN(c4ccccc4)CC3)nc3c2c(=O)[nH]c(=O)n3C)n1,"inconclusive: 6.57 µM [inhibitor, partial curve, poor fit]",
Cc1c(C)c2ccc(OC(C)C(=O)NC3CCN(Cc4ccccc4)CC3)cc2oc1=O (configuration not stated),"inconclusive: 10.4 µM [inhibitor, single point]",
COCCNC(=O)c1ccc(CN2CCc3ccccc3C2)cc1,"inconclusive: 18.5 µM [inhibitor, single point]",
